# Most values lie at the floor of the assay. Slopes are relative: functional sequences can read slightly below zero.
# Tested on: Saccharomyces cerevisiae PS128 hsf1 delta, HSF1(1-493) fusion
# Assay: growth estimate (transactivation domain function in HSF1 fusion, heat-shock survival) (a.u. (slope of normalised read count over time)); higher = stronger growth at 37°C, i.e. more transactivation activity
# Conditions: library: random library
# Experimental: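 Random 60-nt DNA library encoding peptides of up to 20 aa, fused to the C-terminus of yeast HSF1 residues 1-493 (C-terminal TAD deleted) and expressed from the native HSF1 promoter on a CEN plasmid in hsf1-deleted S. cerevisiae PS128. Cells were selected at 37°C on -trp 5-FOA plates for 0, 2, 4, 6 and 8 days and amplicons were sequenced. Growth estimate is the slope of a robust linear fit of total-sum-normalised read counts (normalised to the first time point) over time, using at least 2 replicates. Sequences are classed functional (TAD activity) above a threshold of -0.13, set from stop-codon control sequences.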
row,Substance,growth estimate
1,SKCGPSCRTGWVLMYARG,< -0.25
2,TLRQISDKLWQHNALEGPPS,< -0.25
3,QQHRVVERSEQLYEWEILRF,-0.173
4,NHVGHPFRKRPPADPSGAMP,< -0.25
5,WESRDSNVSAVHVIYPQHAH,< -0.25
6,FVQSCPSETRVLTIL,< -0.25
7,IARISVIERSNVIASLTCRP,< -0.25
8,YVRQKLSIAGKSPG,< -0.25
9,DTDAC,< -0.25
10,EGDGLRNGDDPI,< -0.25
11,DGLQYRHVWCKVMIG,< -0.25
12,QESNAGACACKIHMYTSRFR,< -0.25
13,WVLTGQMTCNIGWESTTMRV,< -0.25
14,RTRSEKACLGYNMFPVPLIQ,-0.243
15,NPEK,< -0.25
16,RPLTESRE,< -0.25
17,HTENKSTAVRPVVAGGQLHK,< -0.25
18,EFRAFRELYGRCSVTLARSE,< -0.25
19,RLNTCSPSSEDVFSSQMAG,< -0.25
20,YCVHGISPAINRQSQWTRHV,-0.243
21,FLLLARAVSSAEPSGETQQR,< -0.25
22,PVGPCIRLMEAP,< -0.25
23,VYAAVGLSRRTDGGKWAWGY,< -0.25
24,ASRMVHNTCLSQILLDHVGP,< -0.25
25,ALYAMCFCLRGGSVEGS,-0.235
26,CGR,< -0.25

row,Substance,growth estimate
1,GDSPYGAGRA,< -0.25
2,CHVSLGRGWDPT,< -0.25
3,RHQLYPCGKFTDTGQSNALP,< -0.25
4,SEGQGLRAVPVSRPGWPGPV,< -0.25
5,YVLLRYK,< -0.25
6,RHWRALPCIRRSAQLVVVWL,< -0.25
7,RKHRAVVKGLRRPLGSALRH,< -0.25
8,PIQVIKRAC,< -0.25
9,KKN,< -0.25
10,RADALRLGALSCKRAGDSCV,< -0.25
11,SFRPRGSDMG,< -0.25
12,TESDFCSRTAVVYIGSNSSD,< -0.25
13,PLPSRLRQTIE,< -0.25
14,LRWTYQRYVCRRDINSHKNR,< -0.25
15,NWDSRNWLSSPTRV,< -0.25
16,KSNPRHLSSSRNWYAIPF,< -0.25
17,SMRSGRKDGN,< -0.25
18,YQIY,-0.229
19,VTAHTTVVIS,< -0.25
20,LHSFRTSQLPET,< -0.25
21,VVGCLIGPESETT,< -0.25
22,QLGLIATIKGCSLSIGKVWG,< -0.25
23,ARYYAPLYSRMRGVSPPPER,< -0.25
24,GRRIFTPCIVDVDDPVEAVK,< -0.25
25,HSVTTDKIREVTVADKRNCS,< -0.25
26,PGLESTS,< -0.25

row,Substance,growth estimate
1,SLSLPSVRRARGSVPRHVED,< -0.25
2,LTLWPWQVR,< -0.25
3,ILHFLSRISCALLVSYIPGQ,< -0.25
4,AVT,< -0.25
5,LHSSRNQAKCRR,< -0.25
6,ELRLSSINRLKTLRLH,< -0.25
7,RIYPLRQTSGSSPVGQEK,< -0.25
8,SEKRRSGFVA,< -0.25
9,GWWATLGRFQSR,< -0.25
10,FYRPLVSDGGIGPRAL,< -0.25
11,RPCLLRRERKYRVRIRSPRG,< -0.25
12,ILKVCGGLGYRGL,< -0.25
13,IVSLFRIATLCI,< -0.25
14,VQMYTREQARAGSSRWSSAH,< -0.25
15,NARAGSSPVAGRGCSYFVAR,< -0.25
16,LEYSFS,< -0.25
17,RWLSSL,< -0.25
18,AWRVTVPGGKTFDIA,< -0.25
19,WAR,< -0.25
20,PMLYKGEDSLLSFEFWEPNG,-0.25
21,WCPARMVAGYCGQPDTISGR,< -0.25
22,LRRTMEINAAGKVRKRVHGR,< -0.25
23,RGPSSRSWDKRQITHRAPDH,< -0.25
24,ALWFGDENHLPLQLRRNPCM,< -0.25
25,CQMFSLTPVSALAGWCLRFG,-0.211
26,VWQRRRREIRVRQLKLDYYS,< -0.25

row,Substance,growth estimate
1,CGF,< -0.25
2,LDNQYLRIVSWVTVSTSTVH,< -0.25
3,QYLRAQE,< -0.25
4,HQFP,< -0.25
5,FRGETIARSFMRRLESLRYA,< -0.25
6,FTA,< -0.25
7,PKCGVKAAEGGF,< -0.25
8,TRLVNVYQ,< -0.25
9,SGLRNPPASAVCTPGS,< -0.25
10,RCSLLANGVDSGELGASLP,< -0.25
11,RAKRWVTPSICAGKLDRKRH,< -0.25
12,QRPMLDHV,< -0.25
13,PRRVPPCGPQA,< -0.25
14,NVTFAESSGGNHVEKHCHLP,< -0.25
15,TCTATLN,< -0.25
16,DHGFSYPNVRI,< -0.25
17,DSLAPRGSFVPGTELTHTAP,< -0.25
18,QKIVTAERYRDGIEDVSELL,< -0.25
19,HLQRRTAH,< -0.25
20,PLAITLPVLLANASTLSLTS,< -0.25
21,RAVAWPAL,< -0.25
22,ERCRQRPPAPGHIVRGDSYV,< -0.25
23,IRGQRSGQSGLRESAKQQRA,< -0.25
24,HRGILTATVALQNQPGSLRL,< -0.25
25,PLYRPSLAGT,< -0.25
26,RGSRLCAGIIAVVFFSQKGV,< -0.25

row,Substance,growth estimate
1,ELALGTLQGH,< -0.25
2,DFHVAGDRSPPAVHISSARG,< -0.25
3,KGHAETVGRAVNGLN,< -0.25
4,RWIQLGSMVGDLPVHPHGSE,< -0.25
5,STNRISQSNTLKAGTPASRA,< -0.25
6,LASEAVSIIPSSPSVGLRRA,-0.243
7,TGLVGFLK,< -0.25
8,KGVVNLVIIGEGGQVC,< -0.25
9,VRVLRESRRSAELVASTVGG,< -0.25
10,TSSEVLSSPFYRRGSSPAGR,< -0.25
11,YGGPLMRIGDRLAFLF,< -0.25
12,HCDRIGNREKEYRPPSVRML,< -0.25
13,RKHF,< -0.25
14,KRYALLEPDRYWILHGNITS,< -0.25
15,VHL,< -0.25
16,VTTRKAVRG,< -0.25
17,RAFYIPIRDLRF,< -0.25
18,LGANDNWVGQTLEMHPIVNG,< -0.25
19,RPMWVRVAMSLHCFYASQID,< -0.25
20,VEPGGDPTLVFGYVSGEPKP,< -0.25
21,KGTVLYIEATGRSWGCAVSA,< -0.25
22,GLDYVSSRLQSGP,< -0.25
23,TNRTVRFTRQWRANTNSYRD,< -0.25
24,RQWIRLLGLAGATV,< -0.25
25,QTFVLPLSLVWGALHKSTTP,< -0.25
26,RLIRSKDIFSGDRQHFGCEE,< -0.25

row,Substance,growth estimate
1,DKRLVNRMLGSMMGVSTVEC,< -0.25
2,TGEFHSLSGIIWRSGVFESG,< -0.25
3,FTISVVR,< -0.25
4,QQRGTTSKP,-0.231
5,IKKTDGNEKIQVSNNSTVIS,< -0.25
6,RWNCCVMVSIIY,< -0.25
7,KNKRGRVRLRSNSFFIMSSG,< -0.25
8,CVRNDFNLLIRIPVASLLLQ,-0.226
9,DKGGPSRRHDSYATTHGELG,< -0.25
10,LNTEHGPERATKSA,< -0.25
11,AKI,< -0.25
12,RNRSEVYSVLGS,< -0.25
13,VHRRKTSGRREN,< -0.25
14,IFKLWVSSGVILYFSRR,< -0.25
15,NSVGYLSITGNE,< -0.25
16,WAWYACFFLTEG,< -0.25
17,KNRGILVGD,< -0.25
18,TFV,< -0.25
19,HSSLIWSPIGLQ,< -0.25
20,VRTGGLEKAPRS,< -0.25
21,SFMLPA,< -0.25
